Data as given in PubChem BioAssay AID1259405 (NCATS, 2018).
In all, the deposit lists about 50,000 reagents; below is a random part of them. Of all reagents, about 4,000 (8%) are marked active. 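Mouse siRNA library applied to hamster cells; one well for each siRNA.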 A number with no mark means an inactive call. The numbers tell different reagents against one gene apart.

- Test: 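Knock-downs that lift recombinant protein yield in hamster ovary cells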 (primary screen)
- System: Chinese hamster CHO-K1 ovary cells with stable secreted eGFP expression
- Reagent: single siRNA against mouse genes, 0.8 pmol siRNA per well (2 µl of 400 nM stock)
- Duration: 3 days
- Detection: 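Percent of the per-plate non-targeting control median for intracellular GFP per well by laser scanning cytometry and for cell viability by ATP luminescence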
- Direction: GFP, % of control: higher = more GFP per well, higher productivity; viability (ATP), % of control: higher = more viable cells (more ATP)
- Call rule: 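Called active when intracellular GFP, relative to negative control, is at or above 120%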

Gene | reagent no. | GFP, % of control | viability (ATP), % of control
Lzts2 | 1 | 40.6 | 76.3
Lzts2 | 2 | 108 | 77.1
Lzts2 | 3 | 70.9 | 45
Them7 | 1 | 77 | 95.8
Them7 | 2 | 55.7 | 54.3
Them7 | 3 | 65.5 | 80.1
Anpep | 1 | 83.2 | 62.5
Anpep | 2 | 32.3 | 29.1
Anpep | 3 | 36.5 | 48.2
Spam1 | 1 | 57.1 | 31
Spam1 | 2 | 86.6 | 89.5
Spam1 | 3 | 57.4 | 42.2
Aldh1a1 | 1 | 122 (active) | 123
Aldh1a1 | 2 | 45.9 | 58.5
Aldh1a1 | 3 | 64.3 | 74.6
Gad2 | 1 | 53.5 | 75.5
Gad2 | 2 | 53.2 | 70.1
Gad2 | 3 | 81.9 | 70.7
Anxa1 | 1 | 68.9 | 66.5
Anxa1 | 2 | 113 | 119
Anxa1 | 3 | 194 (active) | 74.8
Or5t5 | 1 | 68.8 | 55.1
Or5t5 | 2 | 92.2 | 60.4
Or5t5 | 3 | 68.4 | 93.8
Irak1bp1 | 1 | 48 | 64.6
Irak1bp1 | 2 | 72.4 | 63.2
Irak1bp1 | 3 | 154 (active) | 82.5
Snx4 | 1 | 66.4 | 95.2
Snx4 | 2 | 84.1 | 83.4
Fcgr2b | 1 | 46.7 | 51.7
Fcgr2b | 2 | 60 | 77.5
Fcgr2b | 3 | 97.9 | 82.8
Krt87 | 1 | 103 | 64.5
Krt87 | 2 | 84 | 50
Stk32a | 1 | 71 | 85
Stk32a | 2 | 45.2 | 73.1
Stk32a | 3 | 44.6 | 66.1
Foxp4 | 1 | 65.3 | 90.2
Foxp4 | 2 | 91.4 | 47.9
Foxp4 | 3 | 79.6 | 99.8
Hnrnph1 | 1 | 79.8 | 74.6
Hnrnph1 | 2 | 88.7 | 88.3
Hnrnph1 | 3 | 81.1 | 98.6
Minpp1 | 1 | 107 | 86.7
Minpp1 | 2 | 70.1 | 57.6
Minpp1 | 3 | 65.7 | 81.2
Gdpd4 | 1 | 62.7 | 92
Gdpd4 | 2 | 94.7 | 79.7
Gdpd4 | 3 | 106 | 85.7
Zbtb44 | 1 | 46.9 | 64.4
Zbtb44 | 2 | 72.6 | 98.8
Zbtb44 | 3 | 61.6 | 71.9
Zbtb44 | 4 | 97.1 | 89.2
Zbtb44 | 5 | 103 | 108
Zbtb44 | 6 | 130 (active) | 168
Il1rl2 | 1 | 91.1 | 97.2
Il1rl2 | 2 | 47.4 | 59.5
Il1rl2 | 3 | 63.4 | 66
Cd83 | 1 | 60.2 | 62.4
Cd83 | 2 | 67.3 | 63.2
Cd83 | 3 | 75.9 | 105
Nkain4 | 1 | 51 | 50.2
Nkain4 | 2 | 89.2 | 102
Nkain4 | 3 | 216 (active) | 167
Vgll1 | 1 | 36 | 40.4
Vgll1 | 2 | 56.7 | 50.9
Vgll1 | 3 | 99 | 100

Part of the list above, showing only “GFP, % of control”.
Krt87 #1: 103
Krt87 #2: 84
Stk32a #1: 71
Stk32a #2: 45.2
Stk32a #3: 44.6
Foxp4 #1: 65.3

Next entries follow:
Gene | reagent no. | GFP, % of control | viability (ATP), % of control
Oxr1 | 1 | 63.7 | 69.5
Oxr1 | 2 | 59.4 | 87.1
Oxr1 | 3 | 73.2 | 98.2
Ccr7 | 1 | 118 | 90
Ccr7 | 2 | 49.5 | 68.9
Ccr7 | 3 | 89.7 | 83.6
Mpp4 | 1 | 78.1 | 78.4
Fam228b | 1 | 60.5 | 63.1
Fam228b | 2 | 83.6 | 59.3
Fam228b | 3 | 70.6 | 75.4
Glod4 | 1 | 64.9 | 63.9
Glod4 | 2 | 86.5 | 67.7
Glod4 | 3 | 69.2 | 82.3
Gyg1 | 1 | 43.9 | 62.1
Gyg1 | 2 | 109 | 130
Gyg1 | 3 | 112 | 120
Wdhd1 | 1 | 45.9 | 55.8
Wdhd1 | 2 | 70.3 | 71.9
Wdhd1 | 3 | 103 | 91.6
Slitrk6 | 1 | 77.6 | 73.8
Slitrk6 | 2 | 84.7 | 97
Slitrk6 | 3 | 75.5 | 70.6
H2bc18 | 1 | 51.8 | 57.2
H2bc18 | 2 | 51.6 | 61.1
H2bc18 | 3 | 100 | 88.8
Podnl1 | 1 | 57.2 | 42.4
Podnl1 | 2 | 65.6 | 79.7
Podnl1 | 3 | 37.7 | 83.4
Klf3 | 1 | 97.3 | 135
Klf3 | 2 | 75.1 | 72.8
Klf3 | 3 | 83.2 | 70.7
Slc35d1 | 1 | 73.5 | 110
Slc35d1 | 2 | 86 | 67.8
Slc35d1 | 3 | 60.4 | 61.9
Cd37 | 1 | 43.6 | 36.8
Cd37 | 2 | 91.1 | 52.1
Cd37 | 3 | 45.6 | 57.9
Rars1 | 1 | 147 (active) | 72.2
Rars1 | 2 | 80 | 59.7
Or8b101 | 1 | 109 | 85.8
Or8b101 | 2 | 67.7 | 65.5
Or8b101 | 3 | 91.9 | 0.74
